From publication PMC8068036, “Synthesis of New Biscoumarin Derivatives, In Vitro Cholinesterase Inhibition, Molecular Modelling and Antiproliferative Effect in A549 Human Lung Carcinoma Cells” (International Journal of Molecular Sciences, 2021)

Conditions: classification from PAMPA-BBB Pe
Procedure: The parallel artificial membrane permeability assay (PAMPA) is used as a non-cell-based in vitro assay to predict BBB penetration and is carried out in a coated 96-well membrane filter. In our assays, the filter membrane of the donor plate was coated with PBL (Polar Brain Lipid, Avanti, Denver, CO, USA) in dodecane (4 µL of 20 mg mL^−1 PBL in dodecane), and the acceptor well was filled with 300 µL of phosphate buffered saline (PBS) (pH 7.4; VA). The tested compounds were first dissolved in DMSO, and the resulting mixture was diluted with PBS (pH 7.4) to reach the final concentration (40–100 µM) in the donor well. […] Three hundred microliters of the donor solution (VD) were added to the donor wells, and the donor filter plate was carefully placed onto the acceptor plate to ensure that the coated membrane was “in contact” with both the donor solution and the acceptor buffer. The test compound diffused from the donor well through the polar brain lipid membrane (area = 0.28 cm^2) to the acceptor well. The concentration of the tested compound in both the donor and acceptor wells was assessed after 3, 4, 5, and 6 h of incubation, respectively, in quadruplicate using a UV plate reader Synergy HT (Biotek, Winooski, VT, USA) at the maximum absorption wavelength of each compound. […]

NS(=O)(=O)c1cc(C(=O)O)c(NCc2ccco2)cc1Cl [Furosemide, reference compound]
CNS Predicted Availability: CNS− (CNS−: low BBB permeation predicted with Pe (×10^−6 cm s^−1) < 2.0)
